Patent US20090202508A1, “NEGATIVE REGULATION OF HYPOXIA INDUCIBLE FACTOR 1 BY OS-9” (THE JOHNS HOPKINS UNIVERSITY, priority 2004, published 2009)
These are yes or no findings as the source states them, for the method shown. For some of these results: In cells and extracts the contact can be indirect. Some binding calls cover weakened binding; strength is not graded here. Where a sequence is shown, tags or fusion partners need not be part of it. Blank lines part the entries; values can stand above or below the molecule they belong to.

Protein sequences, listed by entry. Tags and fused reporters are not part of them.
UniProt Q9H6Z9: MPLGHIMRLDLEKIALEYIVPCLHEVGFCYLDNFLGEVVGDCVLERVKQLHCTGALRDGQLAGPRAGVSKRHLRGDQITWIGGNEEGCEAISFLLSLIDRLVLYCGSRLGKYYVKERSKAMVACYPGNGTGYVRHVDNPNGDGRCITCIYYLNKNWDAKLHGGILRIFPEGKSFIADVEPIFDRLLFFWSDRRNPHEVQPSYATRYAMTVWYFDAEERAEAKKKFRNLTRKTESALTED

Assays:
[1] = target: T1, HA-OS-9 (hemagglutinin epitope-tagged human OS-9) (human) (UniProt Q13438); experiment: GST pull-down of 35S-labelled in vitro-translated HA-OS-9, SDS-PAGE and autoradiography
T1 sequence (35S-methionine labelled when in vitro-translated, looked up): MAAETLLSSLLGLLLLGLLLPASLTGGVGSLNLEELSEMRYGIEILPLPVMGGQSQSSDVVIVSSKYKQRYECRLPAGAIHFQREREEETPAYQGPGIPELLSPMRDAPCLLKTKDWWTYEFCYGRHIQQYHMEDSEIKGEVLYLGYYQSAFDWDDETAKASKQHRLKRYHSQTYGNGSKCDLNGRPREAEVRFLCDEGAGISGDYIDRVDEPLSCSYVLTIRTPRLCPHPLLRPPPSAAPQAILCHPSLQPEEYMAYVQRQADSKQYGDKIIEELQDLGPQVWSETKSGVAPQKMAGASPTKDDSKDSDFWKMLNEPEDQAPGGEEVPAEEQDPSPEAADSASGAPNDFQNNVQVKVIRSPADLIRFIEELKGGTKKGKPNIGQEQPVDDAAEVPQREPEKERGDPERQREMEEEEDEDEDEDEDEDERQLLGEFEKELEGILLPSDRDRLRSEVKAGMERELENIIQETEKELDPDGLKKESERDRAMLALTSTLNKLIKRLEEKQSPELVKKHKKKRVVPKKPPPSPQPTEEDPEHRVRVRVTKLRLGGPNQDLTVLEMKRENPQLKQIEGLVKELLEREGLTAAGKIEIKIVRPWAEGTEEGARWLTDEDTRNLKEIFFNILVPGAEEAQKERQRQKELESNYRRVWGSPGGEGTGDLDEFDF

[2] = target: GST-HIF-1α (531-826) [GST: P08515]; experiment: GST pull-down of in vitro-translated OS-9 on GST-HIF-1α (531-826) preincubated with lysate, with desferrioxamine; autoradiography
[3] = target: PHD3 (HIF-1α prolyl hydroxylase 3) (UniProt Q9H6Z9); experiment: co-immunoprecipitation with anti-HA from transfected 293 cells, immunoblot with anti-PHD3
[4] = target: PHD3 (HIF-1α prolyl hydroxylase 3) (UniProt Q9H6Z9); experiment: legend of FIG. 5: anti-HA immunoprecipitation from 293 cells, immunoblot for each PHD isoform

binding [1]: binds
Molecule: GST-HIF-1α (531-826) (from UniProt P08515 1-218; Q16665 531-826)

B1: HA-OS-9 (hemagglutinin epitope-tagged human OS-9) (protein, UniProt Q13438 1-667, looked up, not shown: small tags and cut ends)
chain: T1 sequence (35S-methionine labelled when in vitro-translated, looked up)
modifications: 35S-methionine labelled when in vitro-translated
binding [2]: binds
binding [3]: binds
binding [4]: binds
